Data as given in article PMC4136963, “Structure-Based Design and Synthesis of Antiparasitic Pyrrolopyrimidines Targeting Pteridine Reductase 1” (Journal of Medicinal Chemistry, 2014).

Tested on: trypanosomes
Assay: LC-MS measurement of accumulation into trypanosomes
Conditions: LC-MS measurements

SMILES | accumulation into trypanosomes
Nc1nc2[nH]c(-c3ccccc3)c(-c3ccccc3)c2c(=O)[nH]1 [34a, 2-Amino-5,6-diphenyl-3,7-dihydro-4H-pyrrolo[2,3-d]pyrimidin-4-one] | significant accumulation
Nc1nc(N)c2c(-c3ccccc3)c(-c3ccccc3)[nH]c2n1 [35a, 5,6-Diphenyl-7H-pyrrolo[2,3-d]pyrimidine-2,4-diamine] | significant accumulation
